# From PubChem BioAssay AID624246 (National Center for Advancing Translational Sciences (NCATS), 2012)
# The chains behind the UniProt entries cited, without tags or fusion partners. Where a name states a change or a piece, a line headed by the entry shows the natural chain unless it says otherwise.
# UniProt P11308: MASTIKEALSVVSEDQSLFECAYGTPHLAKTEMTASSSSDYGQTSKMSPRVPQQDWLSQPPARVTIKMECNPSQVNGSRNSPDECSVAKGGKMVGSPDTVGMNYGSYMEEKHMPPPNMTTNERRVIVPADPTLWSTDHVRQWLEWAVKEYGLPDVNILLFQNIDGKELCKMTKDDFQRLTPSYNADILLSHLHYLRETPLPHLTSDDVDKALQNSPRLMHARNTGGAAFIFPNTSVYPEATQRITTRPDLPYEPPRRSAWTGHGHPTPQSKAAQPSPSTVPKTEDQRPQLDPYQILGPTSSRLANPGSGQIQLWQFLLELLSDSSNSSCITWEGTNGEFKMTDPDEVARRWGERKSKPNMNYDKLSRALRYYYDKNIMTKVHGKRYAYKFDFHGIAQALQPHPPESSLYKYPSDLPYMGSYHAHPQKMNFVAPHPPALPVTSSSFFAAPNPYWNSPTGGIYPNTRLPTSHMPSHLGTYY
# In all, about 370,000 compounds went through this assay and about 100 (0.027%) were called active. This list was built around the results that the source calls inconclusive (neither active nor inactive); the mix of calls is not that of the screen. The call rests on the fitted dose curve; in most records, active means well fitted inhibition curve with a large enough effect in the polarisation, with a control signal flat; inconclusive means small, poorly fitted or top-dose-only effect, or effect the other way, or a change in a side signal; inactive means no such curve, though single readings can be large or run the other way; the % refers to the polarisation. A potency beside an inconclusive call is a rough fit, not a confirmed value. A note “side channel” means that the fit belongs to a control or component signal, not to the main read-out.
# Molecular target: Transcriptional regulator ERG (Homo sapiens) (UniProt P11308)
# Assay: qHTS for Small Molecule Inhibitors of the ERG Ets/DNA interaction
# Details: fluorescence polarization, His-ERG Ets domain / labelled DNA; series mostly up to 76.9 µM
# Outline: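 His-tagged ERG Ets domain (1 uM in the protein solution; 300mM KCl, 50mM Tris-HCl, 1mM EDTA, 1mM DTT, pH 7.5) received compound, then a probe mix of 5 nM fluorescein-DNA and 100nM Texas-615-DNA. Fluorescence polarization was read for both dyes.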
# Potency means the concentration at half of the fitted maximal effect.
row,Compound,Potency
1,CC(C)[C@H]1COC(NC2=N[C@@H](C(C)C)CO2)=N1,inactive
2,CCN1C(c2ccccc2)=C(c2ccccc2)S/C1=C/C=C1\SC(=S)N(C)C1=O,"inconclusive: 22.4 µM [fluorescent, side channel, partial curve, poor fit]"
3,COc1ccc(CCNc2oc(-c3cccc4ccccc34)nc2P(=O)(OC)OC)cc1OC,"inconclusive: 11.2 µM [inhibitor, single point]"
4,CCN1/C(=C/c2ccc3ccccc3[n+]2CC)C=Cc2ccccc21,"inconclusive: 25.1 µM [fluorescent, side channel, partial curve, poor fit]"
5,COC(=O)c1cccc(NC(=O)c2nsc3ccccc23)c1,"inconclusive: 50.1 µM [quencher, side channel, single point]"
6,Cc1cc(Cl)ccc1NC(=S)NCCCO,inactive
7,CC(/C=N/N1C(=O)CSC1=S)=C\c1ccccc1,"inconclusive: 6.31 µM [fluorescent, side channel, full curve]"
8,CC(C)Oc1ccc(/C(O)=C2/C(=O)C(=O)N(Cc3cccnc3)C2c2ccco2)cc1 (stereo not given),inactive
9,COc1ccc(NC(=O)C(C)(C)Oc2ccc(Cl)cc2)cn1,"inconclusive: 5.62 µM [inhibitor, partial curve, poor fit]"
10,Cc1nn(S(=O)(=O)c2ccccc2)c(C)c1S(=O)(=O)N1CCOCC1,"inconclusive: 28.2 µM [inhibitor, single point]"
11,O=C1N(c2ccccc2)c2ccccc2C1(Cc1ccncc1)Cc1ccncc1,inactive
12,CCC(=O)N1CCN(c2nc3ccc(Br)cc3s2)CC1,"inconclusive: 35.5 µM [inhibitor, single point]"
13,O=C(O)c1cc(-c2ccc(/C=C3/SC(=S)N(Cc4ccccc4)C3=O)o2)ccc1Cl,"inconclusive: 39.8 µM [fluorescent, side channel, partial curve, poor fit]"
14,CCOc1ccc(C(=O)Nc2ccc3c(c2)OCCO3)cc1OC,inactive
15,C1CCN2CC3CC(CN4CCCC[C@@H]34)[C@H]2C1,"inconclusive: 44.7 µM [inhibitor, single point]"
16,Nc1cc([N+](=O)[O-])ccc1O,inactive
17,CCn1c(=O)c2cc(C(=O)NC3CCCCCC3)sc2c2ccccc21,"inconclusive: 1 µM [quencher, side channel, full curve, poor fit]"
18,O=C(Nc1ccc(N2CCN(C(=O)c3cccs3)CC2)cc1)c1ccccc1Cl,"inconclusive: 5.62 µM [inhibitor, single point]"
19,CC1(C)OC(C)(C)/C(=C/Nc2ccc(O)cc2)C1=O,"inconclusive: 44.7 µM [inhibitor, partial curve, poor fit]"
20,COc1cc(NCCCC(C)N)c2ncccc2c1 (stereo not given),"inconclusive: 100 µM [inhibitor, single point]"

# By substructure: the entries above with a furan ring, fused or not
row,Compound,Potency
8,CC(C)Oc1ccc(/C(O)=C2/C(=O)C(=O)N(Cc3cccnc3)C2c2ccco2)cc1 (stereo not given),inactive
13,O=C(O)c1cc(-c2ccc(/C=C3/SC(=S)N(Cc4ccccc4)C3=O)o2)ccc1Cl,"inconclusive: 39.8 µM [fluorescent, side channel, partial curve, poor fit]"

# The list continues.

row,Compound,Potency
1,CCOC(=O)c1c(C)oc2c1c(CN1CCN(C(=O)OCC)CC1)c(O)c1ccccc12,"inconclusive: 28.2 µM [inhibitor, partial curve, poor fit]"
2,CN(C(=O)c1ccc2c(c1)N(Cc1ccccc1F)C(=O)c1ccccc1S2)C1CCCCC1,"inconclusive: 1.78 µM [quencher, side channel, partial curve, poor fit]"
3,Cc1ccc(NC(=S)NNC(C)(C)C)cc1,inactive
4,O=C(O)C1Cc2ccccc2CN1C(=O)CSc1nnc2ccccn12 (stereo not given),"inconclusive: 7.08 µM [quencher, side channel, single point]"
5,CCC1CN(C(=O)NCc2ccccc2)c2ccccc2O1 (stereo not given),inactive
6,CSCCC(NS(=O)(=O)c1ccc2c(c1)oc(=O)n2C)C(=O)N1CCN(c2cc(Cl)ccc2C)CC1 (stereo not given),"inconclusive: 50.1 µM [quencher, side channel, partial curve, poor fit]"
7,CC1=CC(C)(C)N2C(=O)C(=Nc3ccc(O)cc3)c3cccc1c32,"inconclusive: 15.8 µM [inhibitor, partial curve, poor fit]"
8,CCC1COC(c2cccn2Cc2ccc(Cl)cc2)=N1 (stereo not given),"inconclusive: 28.2 µM [inhibitor, partial curve, poor fit]"
9,O=S(=O)(NCCC1=CCCCC1)c1ccc(OC(F)(F)F)cc1,"inconclusive: 3.98 µM [inhibitor, partial curve, poor fit]"
10,Cc1cc(Nc2cccc(C(F)(F)F)c2)ncn1,inactive
11,CCC(CC)NC(=O)COC(=O)c1cc(SC)ccc1Cl,active: 12.6 µM
12,Cc1cccn2c(=O)c3cc(C#N)c(=NC(=O)c4ccccc4)n(Cc4ccco4)c3nc12,"inconclusive: 7.08 µM [inhibitor, partial curve, poor fit]"
13,CCOC(=O)c1c(NC(=O)C(C)Sc2cn(CCNC(=O)c3ccc(OC)c(OC)c3)c3ccccc23)sc2c1CCC2 (stereo not given),"inconclusive: 22.4 µM [inhibitor, partial curve, poor fit]"
14,O=C(Nc1ccc(-c2nc3ccccc3[nH]2)cc1)c1c(F)c(F)c(F)c(F)c1F,"inconclusive: 50.1 µM [inhibitor, single point]"
15,C/C(=N\NC(=O)c1cccs1)c1ccncc1,"inconclusive: 28.2 µM [inhibitor, single point]"
16,Cc1c(S(=O)(=O)c2ccccn2)c(N)n(Cc2ccccc2Cl)c1C,"inconclusive: 39.8 µM [fluorescent, side channel, single point]"
17,COc1ccc(-c2cc(-c3ccccc3)nc3c2COc2ccc(F)cc2-3)cc1,"inconclusive: 7.94 µM [quencher, side channel, full curve, poor fit]"
18,CC1(C)CC(=O)C(C(C2=C(O)CC(C)(C)CC2=O)c2ccc(Br)s2)C(=O)C1 (stereo not given),inactive
19,COc1ccc2[nH]c(=O)c(CN(Cc3cccs3)S(=O)(=O)c3cccc4nsnc34)cc2c1,"inconclusive: 17.8 µM [fluorescent, side channel, partial curve, poor fit]"
20,COc1cccc(/C=C/C(=O)Nc2ccc3nc(N4CCN(C)CC4)cc(C)c3c2)c1OC,"inconclusive: 20 µM [quencher, side channel, partial curve]"
